Experimental findings from article PMC11055877 are described below.

These are yes or no findings as the source states them, for the method shown. Binding seen in cells or lysates may run through a third protein. Some results given as binding are weak or reduced against the parent protein; the word gives no strength.

The experiment deals with E2F4 (human (endogenous in PDAC CSCs)), Q16254. As to the kind of experiment: co-IP; nuclear and chromatin fractions of pancreatic CSCs (Nuclear Lysis Buffer: 50 mM Tris HCl pH 7.5, 100 mM NaCl, 50 mM KCl, 2 mM MgCl2, 1 mM EDTA, 10% glycerol, 0.3% Triton X-100; Benzonase); 5 µg cross-linked antibodies for 12 h at 4 °C; western blot; alternatively the nuclear complex co-IP kit (Active Motif). The settings on record: remark: other sources report otherwise. On the technique in general: Immunoblotting shows a protein as a band on a membrane.

B1: retinoblastoma protein pRb, P06400 1-928 (protein)
chain: MPPKTPRKTAATAAAAAAEPPAPPPPPPPEEDPEQDSGPEDLPLVRLEFEETEEPDFTALCQKLKIPDHVRERAWLTWEKVSSVDGVLGGYIQKKKELWGICIFIAAVDLDEMSFTFTELQKNIEISVHKFFNLLKEIDTSTKVDNAMSRLLKKYDVLFALFSKLERTCELIYLTQPSSSISTEINSALVLKVSWITFLLAKGEVLQMEDDLVISFQLMLCVLDYFIKLSPPMLLKEPYKTAVIPINGSPRTPRRGQNRSARIAKQLENDTRIIEVLCKEHECNIDEVKNVYFKNFIPFMNSLGLVTSNGLPEVENLSKRYEEIYLKNKDLDARLFLDHDKTLQTDSIDSFETQRTPRKSNLDEEVNVIPPHTPVRTVMNTIQQLMMILNSASDQPSENLISYFNNCTVNPKESILKRVKDIGYIFKEKFAKAVGQGCVEIGSQRYKLGVRLYYRVMESMLKSEEERLSIQNFSKLLNDNIFHMSLLACALEVVMATYSRSTSQNLDSGTDLSFPWILNVLNLKAFDFYKVIESFIKAEGNLTREMIKHLERCEHRIMESLAWLSDSPLFDLIKQSKDREGPTDHLESACPLNLPLQNNHTAADMYLSPVRSPKKKGSTTRVNSTANAETQATSAFQTQKPLKSTSLSLFYKKVYRLAYLRLNTLCERLLSEHPELEHIIWTLFQHTLQNEYELMRDRHLDQIMMCSMYGICKVKNIDLKFKIIVTAYKDLPHAVQETFKRVLIKEEEYDSIIVFYNSVFMQRLKTNILQYASTRPPTLSPIPHIPRSPYKFPSSPLRIPGGNIYISPLKSPYKISEGLPTPTKMTPRSRILVSIGESFGTSEKFQKINQMVCNSDRVLKRSAEGSNPPKPLKKLRFDIEGSDEADGSKHLPGESKFQQKLAEMTSTRTRMQKQKMNDSMDTSNKEEK
Take B1: the binding result was “binds”.

B2: RBL2, Q08999 1-1139 (protein)
chain: MPSGGDQSPPPPPPPPAAAASDEEEEDDGEAEDAAPPAESPTPQIQQRFDELCSRLNMDEAARAEAWDSYRSMSESYTLEGNDLHWLACALYVACRKSVPTVSKGTVEGNYVSLTRILKCSEQSLIEFFNKMKKWEDMANLPPHFRERTERLERNFTVSAVIFKKYEPIFQDIFKYPQEEQPRQQRGRKQRRQPCTVSEIFHFCWVLFIYAKGNFPMISDDLVNSYHLLLCALDLVYGNALQCSNRKELVNPNFKGLSEDFHAKDSKPSSDPPCIIEKLCSLHDGLVLEAKGIKEHFWKPYIRKLYEKKLLKGKEENLTGFLEPGNFGESFKAINKAYEEYVLSVGNLDERIFLGEDAEEEIGTLSRCLNAGSGTETAERVQMKNILQQHFDKSKALRISTPLTGVRYIKENSPCVTPVSTATHSLSRLHTMLTGLRNAPSEKLEQILRTCSRDPTQAIANRLKEMFEIYSQHFQPDEDFSNCAKEIASKHFRFAEMLYYKVLESVIEQEQKRLGDMDLSGILEQDAFHRSLLACCLEVVTFSYKPPGNFPFITEIFDVPLYHFYKVIEVFIRAEDGLCREVVKHLNQIEEQILDHLAWKPESPLWEKIRDNENRVPTCEEVMPPQNLERADEICIAGSPLTPRRVTEVRADTGGLGRSITSPTTLYDRYSSPPASTTRRRLFVENDSPSDGGTPGRMPPQPLVNAVPVQNVSGETVSVTPVPGQTLVTMATATVTANNGQTVTIPVQGIANENGGITFFPVQVNVGGQAQAVTGSIQPLSAQALAGSLSSQQVTGTTLQVPGQVAIQQISPGGQQQKQGQSVTSSSNRPRKTSSLSLFFRKVYHLAAVRLRDLCAKLDISDELRKKIWTCFEFSIIQCPELMMDRHLDQLLMCAIYVMAKVTKEDKSFQNIMRCYRTQPQARSQVYRSVLIKGKRKRRNSGSSDSRSHQNSPTELNKDRTSRDSSPVMRSSSTLPVPQPSSAPPTPTRLTGANSDMEEEERGDLIQFYNNIYIKQIKTFAMKYSQANMDAPPLSPYPFVRTGSPRRIQLSQNHPVYISPHKNETMLSPREKIFYYFSNSPSKRLREINSMIRTGETPTKKRGILLEDGSESPAKRICPENHSALLRRLQDVANDRGSH
For B2, the binding entry is “binds”.
